Data from patent US8008316B2, “Azonafide derived tumor and cancer targeting compounds” (The United States of America as represented by the …, priority 2006, dated 2011).
“And” between values parts separate entries of the source, which are not always exact repeats. Equal values may be shown once. At least one structure is not confirmed: it was looked up by name or label, or the drawing left a doubt. *1 amine or outer side, *2 acyl side, *3 side chain or, on linkers, in order; H or OH if unused. Where a SMILES comes first, the peptide text is derived from it. Bridges are numbered along the chain shown (N, C = ends). Roman numbers before positions name the chains, in order. [ ]: non-standard residue; d: D form. The star is where a group is joined. X1 = COc1ccc2c3c(c4ccccc4cc13)C(=O)N(CCN(C)CCN*)C2=O; Suc = O=C(CCC(=O)[*:2])[*:1]; Nle = CCCC[C@H](N)C(=O)O

Tested on: Gastrin receptor-expressing rat pancreatic cells (NIH line AR42J)
Test: Viable cell count of AR42J cells after about five days of exposure
Type: cell-based
Details: read-out: LC50 (median concentration required for death of 50% of the cell population), calculated from the data
Experimental: The number of viable cells left in the culture after the five day period was measured, and compared to a control culture that was not exposed either compound. The number of cells remaining in each of the experimental cultures, expressed as a percentage of viable cells in the control culture, is provided in Table 4, below.

For `CCCC[C@H](NC(=O)[C@H](Cc1c[nH]c2ccccc12)NC(=O)CNC(=O)[C@H](Cc1ccc(O)cc1)NC(=O)[C@H](C)NC(=O)[C@H](CCC(=O)O)NC(=O)[C@H](CCC(=O)O)NC(=O)CCC(=O)N[C@H](C(=O)N[C@@H](CC(C)C)C(=O)N[C@@H](C)C(=O)N[C@@H](CC(C)C)C(=O)N[C@@H](C)C(=O)NCCN(C)CCN1C(=O)c2ccc(OC)c3cc4ccccc4c(c23)C1=O)C(C)C)C(=O)N[C@@H](CC(=O)O)C(=O)N[C@@H](Cc1ccccc1)C(N)=O` [MD133] (I: EEAYGW[Nle]DF-NH2 / II: VLALA-X1; linker I:N-II:N via Suc), the CC50 was ~0.8 µM and 0.8 µM.
